Results taken from doi:10.1101/2020.09.14.296178.
No constants are given. Whether binding was seen depends on the method and setting. In cells and extracts the contact can be indirect. Some results given as binding are weak or reduced against the parent protein; the word gives no strength. Sequences can lack the tags named with a protein.

Amino acid sequences for entries named in this document (tags omitted).
UniProt P35579: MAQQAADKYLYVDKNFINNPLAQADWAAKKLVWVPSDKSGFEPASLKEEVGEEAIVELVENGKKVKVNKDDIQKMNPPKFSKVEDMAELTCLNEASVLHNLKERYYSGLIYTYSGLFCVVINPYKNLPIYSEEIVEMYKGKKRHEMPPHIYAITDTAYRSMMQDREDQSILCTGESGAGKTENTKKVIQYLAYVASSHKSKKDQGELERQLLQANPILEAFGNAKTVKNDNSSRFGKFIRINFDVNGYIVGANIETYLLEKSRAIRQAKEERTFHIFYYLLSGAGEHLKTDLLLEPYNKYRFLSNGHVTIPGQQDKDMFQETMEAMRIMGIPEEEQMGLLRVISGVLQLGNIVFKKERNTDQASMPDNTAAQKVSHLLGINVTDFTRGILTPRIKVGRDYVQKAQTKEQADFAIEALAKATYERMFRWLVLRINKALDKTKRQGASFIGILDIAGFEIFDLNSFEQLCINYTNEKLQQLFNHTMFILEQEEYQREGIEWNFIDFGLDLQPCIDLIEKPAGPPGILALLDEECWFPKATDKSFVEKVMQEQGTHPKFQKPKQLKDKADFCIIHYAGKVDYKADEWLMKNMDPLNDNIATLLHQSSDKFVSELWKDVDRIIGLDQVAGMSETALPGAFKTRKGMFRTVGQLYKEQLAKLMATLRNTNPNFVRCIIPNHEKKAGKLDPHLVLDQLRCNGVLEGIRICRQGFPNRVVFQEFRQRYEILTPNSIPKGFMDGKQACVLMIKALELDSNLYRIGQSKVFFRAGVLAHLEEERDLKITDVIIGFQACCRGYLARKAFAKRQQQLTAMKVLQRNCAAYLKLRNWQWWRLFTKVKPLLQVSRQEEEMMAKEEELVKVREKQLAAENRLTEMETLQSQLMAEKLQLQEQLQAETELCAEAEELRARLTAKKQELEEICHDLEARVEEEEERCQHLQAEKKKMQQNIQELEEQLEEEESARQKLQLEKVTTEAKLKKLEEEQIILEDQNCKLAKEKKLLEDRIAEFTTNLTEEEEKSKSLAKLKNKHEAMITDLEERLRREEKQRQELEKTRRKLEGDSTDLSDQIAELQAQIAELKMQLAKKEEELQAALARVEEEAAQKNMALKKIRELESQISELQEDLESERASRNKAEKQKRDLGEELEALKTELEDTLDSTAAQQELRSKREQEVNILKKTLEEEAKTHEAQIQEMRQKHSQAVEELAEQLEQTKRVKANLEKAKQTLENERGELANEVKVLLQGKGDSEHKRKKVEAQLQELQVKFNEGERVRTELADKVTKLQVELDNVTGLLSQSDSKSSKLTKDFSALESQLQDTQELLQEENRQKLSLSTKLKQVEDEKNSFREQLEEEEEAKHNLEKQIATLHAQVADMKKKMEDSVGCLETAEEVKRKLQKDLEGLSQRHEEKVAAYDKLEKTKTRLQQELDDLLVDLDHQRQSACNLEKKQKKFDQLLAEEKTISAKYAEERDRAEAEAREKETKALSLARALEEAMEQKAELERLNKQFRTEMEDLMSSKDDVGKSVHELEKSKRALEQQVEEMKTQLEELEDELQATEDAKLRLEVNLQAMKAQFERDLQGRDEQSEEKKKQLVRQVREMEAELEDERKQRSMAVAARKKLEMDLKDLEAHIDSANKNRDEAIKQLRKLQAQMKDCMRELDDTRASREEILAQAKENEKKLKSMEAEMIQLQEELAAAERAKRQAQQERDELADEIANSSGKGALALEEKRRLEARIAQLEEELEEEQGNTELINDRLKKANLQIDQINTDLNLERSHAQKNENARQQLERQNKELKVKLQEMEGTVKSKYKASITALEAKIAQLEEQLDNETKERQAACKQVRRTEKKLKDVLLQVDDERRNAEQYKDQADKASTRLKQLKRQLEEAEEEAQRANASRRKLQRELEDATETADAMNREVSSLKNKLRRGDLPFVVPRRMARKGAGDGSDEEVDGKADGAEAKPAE
UniProt P35580: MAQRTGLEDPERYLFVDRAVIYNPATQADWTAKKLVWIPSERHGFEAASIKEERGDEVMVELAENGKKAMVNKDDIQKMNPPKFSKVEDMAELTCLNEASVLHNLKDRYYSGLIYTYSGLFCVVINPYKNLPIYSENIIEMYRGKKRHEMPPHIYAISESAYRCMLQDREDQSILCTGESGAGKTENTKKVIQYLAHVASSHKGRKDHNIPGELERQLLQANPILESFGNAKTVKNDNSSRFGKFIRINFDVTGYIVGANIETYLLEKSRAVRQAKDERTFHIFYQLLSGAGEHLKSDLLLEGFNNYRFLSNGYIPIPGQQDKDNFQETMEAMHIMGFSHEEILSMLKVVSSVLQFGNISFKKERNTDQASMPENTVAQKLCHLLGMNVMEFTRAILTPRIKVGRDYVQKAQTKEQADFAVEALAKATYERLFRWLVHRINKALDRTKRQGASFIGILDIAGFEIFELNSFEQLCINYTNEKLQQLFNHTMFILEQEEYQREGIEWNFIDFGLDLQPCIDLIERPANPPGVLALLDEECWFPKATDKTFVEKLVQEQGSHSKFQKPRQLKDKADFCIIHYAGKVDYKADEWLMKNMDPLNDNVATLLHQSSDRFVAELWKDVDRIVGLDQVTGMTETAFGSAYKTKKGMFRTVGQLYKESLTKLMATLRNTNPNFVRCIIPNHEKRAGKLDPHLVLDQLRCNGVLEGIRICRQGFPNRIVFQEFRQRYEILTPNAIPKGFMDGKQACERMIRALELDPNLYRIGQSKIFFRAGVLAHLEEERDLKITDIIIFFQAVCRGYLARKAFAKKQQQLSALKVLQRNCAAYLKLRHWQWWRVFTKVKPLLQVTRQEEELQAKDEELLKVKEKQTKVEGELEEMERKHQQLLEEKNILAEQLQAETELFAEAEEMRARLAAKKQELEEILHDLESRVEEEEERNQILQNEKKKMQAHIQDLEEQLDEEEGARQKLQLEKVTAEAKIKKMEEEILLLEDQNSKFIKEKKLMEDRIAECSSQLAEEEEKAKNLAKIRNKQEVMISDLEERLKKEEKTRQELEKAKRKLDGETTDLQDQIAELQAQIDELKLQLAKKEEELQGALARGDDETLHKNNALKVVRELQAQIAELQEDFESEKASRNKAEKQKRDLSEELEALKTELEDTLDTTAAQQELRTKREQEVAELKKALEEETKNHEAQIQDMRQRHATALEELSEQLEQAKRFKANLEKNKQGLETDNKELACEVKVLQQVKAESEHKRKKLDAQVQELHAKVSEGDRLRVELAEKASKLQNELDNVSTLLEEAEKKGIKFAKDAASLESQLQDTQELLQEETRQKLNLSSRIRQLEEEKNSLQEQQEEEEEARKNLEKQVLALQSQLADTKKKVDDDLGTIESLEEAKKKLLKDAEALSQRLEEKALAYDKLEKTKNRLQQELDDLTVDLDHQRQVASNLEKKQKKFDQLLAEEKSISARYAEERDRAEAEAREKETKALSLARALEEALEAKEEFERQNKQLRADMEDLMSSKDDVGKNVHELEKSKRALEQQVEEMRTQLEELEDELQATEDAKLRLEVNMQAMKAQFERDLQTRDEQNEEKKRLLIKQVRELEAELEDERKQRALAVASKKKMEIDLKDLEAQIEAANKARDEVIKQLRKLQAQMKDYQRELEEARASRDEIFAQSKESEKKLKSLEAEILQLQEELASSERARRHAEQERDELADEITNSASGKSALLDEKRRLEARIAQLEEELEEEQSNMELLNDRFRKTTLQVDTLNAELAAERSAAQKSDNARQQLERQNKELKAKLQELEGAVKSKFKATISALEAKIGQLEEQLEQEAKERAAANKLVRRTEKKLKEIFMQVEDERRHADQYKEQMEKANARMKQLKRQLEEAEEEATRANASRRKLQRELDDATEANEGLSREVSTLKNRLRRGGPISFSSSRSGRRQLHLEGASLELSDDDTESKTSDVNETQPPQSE

Molecular target: T1, EGFP-tagged wild-type PKP2 (UniProt Q99959)
T1 sequence: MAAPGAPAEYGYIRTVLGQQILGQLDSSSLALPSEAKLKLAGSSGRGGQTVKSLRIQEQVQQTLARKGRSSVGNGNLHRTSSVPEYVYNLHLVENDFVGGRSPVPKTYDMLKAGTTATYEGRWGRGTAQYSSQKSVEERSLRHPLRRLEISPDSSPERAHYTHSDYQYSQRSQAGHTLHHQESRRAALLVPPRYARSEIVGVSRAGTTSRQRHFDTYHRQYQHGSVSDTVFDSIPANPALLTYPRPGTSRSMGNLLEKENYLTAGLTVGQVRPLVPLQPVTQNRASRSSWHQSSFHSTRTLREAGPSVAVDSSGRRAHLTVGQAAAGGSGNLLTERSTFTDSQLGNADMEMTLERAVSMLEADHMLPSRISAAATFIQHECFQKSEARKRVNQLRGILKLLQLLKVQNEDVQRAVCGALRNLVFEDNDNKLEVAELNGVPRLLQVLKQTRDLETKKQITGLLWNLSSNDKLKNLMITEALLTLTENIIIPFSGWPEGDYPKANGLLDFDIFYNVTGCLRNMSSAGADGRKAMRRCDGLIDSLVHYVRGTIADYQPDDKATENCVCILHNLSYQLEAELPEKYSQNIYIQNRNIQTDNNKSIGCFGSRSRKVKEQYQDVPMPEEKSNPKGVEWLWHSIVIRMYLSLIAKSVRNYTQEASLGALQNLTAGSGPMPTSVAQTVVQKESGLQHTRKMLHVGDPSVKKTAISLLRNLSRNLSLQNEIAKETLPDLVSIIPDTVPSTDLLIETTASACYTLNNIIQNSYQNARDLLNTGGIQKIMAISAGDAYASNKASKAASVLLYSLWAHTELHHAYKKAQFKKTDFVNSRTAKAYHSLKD
Assay: co-IP

Row | Substance | binding
1 | myosin 9 (Myh9), non-muscle myosin heavy chain II-A (from UniProt P35579 1-1960) | binds
2 | myosin 10 (Myh10), non-muscle myosin heavy chain II-B (from UniProt P35580 1-1976) | binds
